No constants are given. Whether binding was seen depends on the method and setting. Some results given as binding are weak or reduced against the parent protein; the word gives no strength.

Amino acid sequences for entries named in this document (tags omitted). Residues count along the entry.
UniProt P35968, residues 329-424: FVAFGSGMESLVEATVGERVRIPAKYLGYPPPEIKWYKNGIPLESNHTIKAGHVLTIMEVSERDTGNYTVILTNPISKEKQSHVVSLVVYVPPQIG

In this assay the target is KDR (Ig4) (UniProt P35968). The assay can be described thus: FPLC purification fractions (self-association).

“KDR (Ig4) (from UniProt P35968 329-424) (receptor)”: the binding result is recorded as “binds”.
